According to PMC12969390:
No constants are given. Whether binding was seen depends on the method and setting. Some binding calls cover weakened binding; strength is not graded here. For some assays here: Tags and fused reporters may be left off the sequences shown.

Legend:
[1] = target: 3xFLAG-tagged TAF12L (C. albicans); test: RNA immunoprecipitation with qPCR (RIP); FLAG-tagged bait precipitated on anti-FLAG M2 beads from polysome-containing extracts of cells treated with 1 mg/ml cycloheximide, compared with puromycin-treated extracts; the partner's mRNA measured by RT-qPCR as a sign of its nascent chain
TAF12-FLAG (C. albicans) = target: T1, TAF12-FLAG (C. albicans) (UniProt Q5ADM2); test: as above
T1 sequence: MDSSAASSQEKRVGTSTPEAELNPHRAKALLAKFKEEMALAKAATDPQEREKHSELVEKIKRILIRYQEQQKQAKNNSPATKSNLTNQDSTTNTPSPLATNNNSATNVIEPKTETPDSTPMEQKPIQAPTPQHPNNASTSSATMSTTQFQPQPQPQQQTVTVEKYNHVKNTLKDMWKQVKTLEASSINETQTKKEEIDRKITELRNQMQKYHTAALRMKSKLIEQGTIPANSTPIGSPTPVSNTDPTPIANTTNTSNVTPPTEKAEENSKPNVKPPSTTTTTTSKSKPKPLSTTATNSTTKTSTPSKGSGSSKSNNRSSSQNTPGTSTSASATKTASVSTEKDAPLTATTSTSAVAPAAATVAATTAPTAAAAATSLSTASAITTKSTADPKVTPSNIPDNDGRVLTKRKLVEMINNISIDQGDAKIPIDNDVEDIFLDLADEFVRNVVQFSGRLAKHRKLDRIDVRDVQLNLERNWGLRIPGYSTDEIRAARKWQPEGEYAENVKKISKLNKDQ

B1: nascent ribosome-associated Ada1 (protein, UniProt Q5AEG1 1-490)
chain: MTSQIADGSSTTTINPLKNGLAALKPTHQAHGTSTTTHLTNGSPKKIKSYKRLELERLIREFQNKLGKNWEKYHETLSLFLIGKLSRAELISTITPILKGKNLLKYHNKLLLLNFANSLKDNSSDLSTEFAGFWNKKAGKVTKNKNTQFERFKSVIMGLPVKERKRIIDISRDSGKKGKIATDIILTRHAILPKIPMIQDKEQQQLQVNNLVQWQQDVLNGINTPIATENYEIPDYDNLSRMMLMIMREHGLTGGLNPGVMEVMLLGLESHLKNIVETAIDVAKYRKNKYTNDNYIPYIKPNEDAQNISNENALPSSKDITLCIEDLHDTLEMYPHLVESEGPKLRLSNVMLENDDMINDDLNYYLPPKSIEYLAKERQAATTNDASTGTTKPGNNKGSSAGGSSAGATTNSPVVNKTDSTAAVSEKTDTNQPLQTPTATQTPVQTSAQAPASAPAQTPAPVSTPILRPDAHIGTTDELKWVLHDLVSTM
B1 was tested, and the binding [1] was “binds”.

B2: nascent TAF4 (protein, UniProt Q59U67 1-363)
chain: MTSTPQESSNLKRQLENSEDSSSPNKKSKTETTTENQSSWESDFNSLPVELLQTETNGTSPAPAPATPIDTTNVSNSKERDQDTSKLNDAIAAAGVDIQQEEEILLQQQLNRKSAEGMASNLKSVIRSSKSPPFLHNYHLAAFIDKVAKQNGIQQNFLMDGEMLELISAACETWLSNLATKTIILSRHRRRGIPVINKKSGSSSVPRSEISKELRSLALKQKEMEEKRVNKRVMLGLEKSTKDASKNDENGESKAGAEETLHRAANATAAMMTMNPGRKKYSWMTSSATAGGGSDFGKSSGGSSKDSGKHQSPIISVRGDNGLRFREIRSGNSIIMKDLLGAIEDEKMGTRNAVIKGYAKLKD
In the case of B2, the binding (TAF12-FLAG (C. albicans)) is reported as “binds”.
